# In patent publication US10618901B2 (GlaxoSmithKline Intellectual Property Development Limited, priority 2014, dated 2020):
# Protein sequences, listed by entry. Tags and fused reporters are not part of them. Lines headed by an entry give the natural chain unless they say otherwise; changes in a name come on top.
# UniProt Q5S007: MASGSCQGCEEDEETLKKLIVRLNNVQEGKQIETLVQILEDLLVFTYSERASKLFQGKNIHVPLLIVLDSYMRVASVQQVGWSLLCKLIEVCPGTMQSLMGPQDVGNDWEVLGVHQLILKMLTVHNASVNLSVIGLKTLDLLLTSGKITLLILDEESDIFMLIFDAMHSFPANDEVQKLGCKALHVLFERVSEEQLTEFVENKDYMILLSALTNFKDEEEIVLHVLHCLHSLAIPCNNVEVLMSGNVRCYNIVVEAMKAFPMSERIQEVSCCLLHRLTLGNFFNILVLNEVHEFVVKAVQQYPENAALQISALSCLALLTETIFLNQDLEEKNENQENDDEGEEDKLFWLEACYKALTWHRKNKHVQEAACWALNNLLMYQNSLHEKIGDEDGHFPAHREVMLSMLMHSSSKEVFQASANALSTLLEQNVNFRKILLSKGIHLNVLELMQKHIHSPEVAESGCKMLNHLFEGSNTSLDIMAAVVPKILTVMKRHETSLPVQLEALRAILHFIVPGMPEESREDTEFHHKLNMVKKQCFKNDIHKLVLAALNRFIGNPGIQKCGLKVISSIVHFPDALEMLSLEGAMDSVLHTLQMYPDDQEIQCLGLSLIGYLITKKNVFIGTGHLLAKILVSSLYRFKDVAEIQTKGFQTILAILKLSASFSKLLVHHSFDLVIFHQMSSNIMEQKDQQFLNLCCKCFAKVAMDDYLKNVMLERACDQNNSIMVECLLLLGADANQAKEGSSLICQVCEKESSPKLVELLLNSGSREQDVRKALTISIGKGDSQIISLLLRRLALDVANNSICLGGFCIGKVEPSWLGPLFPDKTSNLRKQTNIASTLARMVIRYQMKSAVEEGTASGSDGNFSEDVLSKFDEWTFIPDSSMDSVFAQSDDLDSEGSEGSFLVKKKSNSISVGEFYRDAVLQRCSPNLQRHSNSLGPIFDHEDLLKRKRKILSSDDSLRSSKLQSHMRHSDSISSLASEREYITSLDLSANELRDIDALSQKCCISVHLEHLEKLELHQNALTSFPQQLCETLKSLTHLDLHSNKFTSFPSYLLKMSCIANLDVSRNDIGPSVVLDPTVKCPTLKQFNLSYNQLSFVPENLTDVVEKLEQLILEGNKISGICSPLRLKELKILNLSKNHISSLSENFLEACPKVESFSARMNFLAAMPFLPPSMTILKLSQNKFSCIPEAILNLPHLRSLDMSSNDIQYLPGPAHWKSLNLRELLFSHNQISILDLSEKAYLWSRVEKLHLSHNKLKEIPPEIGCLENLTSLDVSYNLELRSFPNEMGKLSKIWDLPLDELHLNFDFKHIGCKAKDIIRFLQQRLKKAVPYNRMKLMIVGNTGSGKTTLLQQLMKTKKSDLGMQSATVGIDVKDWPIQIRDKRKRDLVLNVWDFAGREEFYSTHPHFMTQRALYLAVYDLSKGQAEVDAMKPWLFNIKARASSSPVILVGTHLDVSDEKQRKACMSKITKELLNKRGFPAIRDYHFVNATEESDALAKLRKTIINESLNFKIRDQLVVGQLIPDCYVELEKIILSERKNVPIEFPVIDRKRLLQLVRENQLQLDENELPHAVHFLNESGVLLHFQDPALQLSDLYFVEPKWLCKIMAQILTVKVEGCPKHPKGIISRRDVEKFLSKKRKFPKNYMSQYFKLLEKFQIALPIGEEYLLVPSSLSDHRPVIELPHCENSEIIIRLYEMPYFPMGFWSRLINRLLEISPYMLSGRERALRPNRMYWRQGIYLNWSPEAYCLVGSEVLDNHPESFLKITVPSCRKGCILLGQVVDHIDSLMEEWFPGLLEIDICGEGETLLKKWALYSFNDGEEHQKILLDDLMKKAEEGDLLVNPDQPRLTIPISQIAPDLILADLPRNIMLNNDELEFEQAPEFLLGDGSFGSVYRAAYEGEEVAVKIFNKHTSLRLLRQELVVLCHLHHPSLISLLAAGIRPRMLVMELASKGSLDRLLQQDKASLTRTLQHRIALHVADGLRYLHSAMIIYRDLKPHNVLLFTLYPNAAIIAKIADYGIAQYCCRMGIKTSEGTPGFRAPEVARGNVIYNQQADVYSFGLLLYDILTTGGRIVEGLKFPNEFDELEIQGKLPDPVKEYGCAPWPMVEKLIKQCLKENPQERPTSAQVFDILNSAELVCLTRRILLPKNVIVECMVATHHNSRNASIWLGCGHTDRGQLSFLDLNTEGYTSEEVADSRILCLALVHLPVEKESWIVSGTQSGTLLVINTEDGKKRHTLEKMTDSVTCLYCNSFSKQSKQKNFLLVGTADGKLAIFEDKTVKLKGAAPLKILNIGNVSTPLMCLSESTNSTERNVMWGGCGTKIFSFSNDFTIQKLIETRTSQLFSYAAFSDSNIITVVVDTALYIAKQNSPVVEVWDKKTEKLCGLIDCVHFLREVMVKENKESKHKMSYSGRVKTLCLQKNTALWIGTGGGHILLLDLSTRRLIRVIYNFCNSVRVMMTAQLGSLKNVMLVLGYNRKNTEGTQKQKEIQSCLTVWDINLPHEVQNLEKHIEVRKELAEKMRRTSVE
# Where two headings read alike, the source gives them in different places. Some entries share one result that the patent states for a list of compounds.
# Biological target: T1, LRRK2 Ser935 phosphorylation in SH-SY5Y cells over-expressing recombinant full length LRRK2 (Homo sapiens, UniProt Q5S007)
# T1 construct: A BacMam virus expressing full length recombinant LRRK2 was purchased from Invitrogen; host or cells: SH-SY5Y (BacMam transduction)
# Experiment: Recombinant cellular LRRK2 AlphaScreen assay
# Type: cell-based
# Summary of the method: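 SH-SY5Y cells transduced with BacMam full-length LRRK2 (MOI 50, 24 h) were treated with compound, top final 10 uM, for 60 min at 37° C. Lysates were assayed by AlphaScreen for pSer935 and total LRRK2. Dose-response fitted to a sigmoidal model.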
compound,measurement,setting,value
"CCOc1nc(Nc2cn(CC(C)(C)O)nc2C)nc2[nH]ccc12 [Example E2, 1-(4-((4-ethoxy-7H-pyrrolo-[2,3-d]pyrimidin-2-yl)amino)-3-methyl-1H-pyrazol-1-yl)-2-methylpropan-2-ol]",pIC50 in the recombinant cellular LRRK2 alphaScreen assay,text statement,≥ 5.0
"trans-4-ethoxy-N-(1-(3-fluoro-1-methylpiperidin-4-yl)-5-methyl-1H-pyrazol-4-yl)-7H-pyrrolo[2,3-d]pyrimidin-2-amine [Example E74]",pIC50 in the recombinant cellular LRRK2 alphaScreen assay,"text statement, listed as Example E74",≥ 5.0
"CCOc1nc(Nc2cn(C3CCCOC3)nc2C)nc2[nH]ccc12 (single isomer, unassigned) [Example E32, 4-ethoxy-N-(3-methyl-1-(tetrahydro-2H-pyran-3-yl)-1H-pyrazol-4-yl)-7H-pyrrolo-[2,3-d]pyrimidin-2-amine]",pIC50 in the recombinant cellular LRRK2 alphaScreen assay,text statement,≥ 5.0
"CCOc1nc(Nc2cnn(C3CCOCC3C)c2C)nc2[nH]ccc12 (single isomer, unassigned) [Example E113, (cis)-4-ethoxy-N-(5-methyl-1-(3-methyltetrahydro-2H-pyran-4-yl)-1H-pyrazol-4-yl)-7H-pyrrolo[2,3-d]pyrimidin-2-amine]",pIC50 in the recombinant cellular LRRK2 alphaScreen assay,"text statement, listed as Example E113",≥ 5.0
"CCOc1nc(Nc2cnn(C3CCN(C4COC4)CC3F)c2C)nc2[nH]ccc12 (single isomer, unassigned) [Example E103, cis-4-ethoxy-N-(1-(3-fluoro-1-(oxetan-3-yl)piperidin-4-yl)-5-methyl-1H-pyrazol-4-yl)-7H-pyrrolo[2,3-d]pyrimidin-2-amine]",pIC50 in the recombinant cellular LRRK2 alphaScreen assay,text statement,≥ 7.0
same,pIC50 in the recombinant cellular LRRK2 alphaScreen assay,"text statement, listed as Example E103",≥ 5.0
"trans-3-(4-((4-ethoxy-7H-pyrrolo[2,3-d]pyrimidin-2-yl)amino)-5-methyl-1H-pyrazol-1-yl)cyclopentanol [Example E58]",pIC50 in the recombinant cellular LRRK2 alphaScreen assay,"text statement, listed as Example E58",≥ 5.0
"CCOc1nc(Nc2cnn(C3CCCOC3)c2C)nc2[nH]ccc12 (single isomer, unassigned) [Example E31, 4-ethoxy-N-(5-methyl-1-(tetrahydro-2H-pyran-3-yl)-1H-pyrazol-4-yl)-7H-pyrrolo-[2,3-d]pyrimidin-2-amine]",pIC50 in the recombinant cellular LRRK2 alphaScreen assay,"text statement, listed as Example E31",≥ 5.0
"Cc1nn(CC(C)(C)O)cc1Nc1nc(OCC2CC2)c2cn[nH]c2n1 [Example E25, 1-(4-((4-(cyclopropylmethoxy)-1H-pyrazolo-[3,4-d]-pyrimidin-6-yl)amino)-3-methyl-1H-pyrazol-1-yl)-2-methylpropan-2-ol]",pIC50 in the recombinant cellular LRRK2 alphaScreen assay,text statement,≥ 5.0
"CCOc1nc(Nc2cnn(C3CNCCC3(F)F)c2C)nc2[nH]ccc12 (single isomer, unassigned) [Example E117, N-(1-(4,4-difluoropiperidin-3-yl)-5-methyl-1H-pyrazol-4-yl)-4-ethoxy-7H-pyrrolo[2,3-d]pyrimidin-2-amine]",pIC50 in the recombinant cellular LRRK2 alphaScreen assay,"text statement, listed as Example E117",≥ 5.0
"CCOc1nc(Nc2cnn(C3CN(C4COC4)CCC3(F)F)c2Cl)nc2[nH]ccc12 (single isomer, unassigned) [Example E123, N-(5-chloro-1-(4,4-difluoro-1-(oxetan-3-yl)piperidin-3-yl)-1H-pyrazol-4-yl)-4-ethoxy-7H-pyrrolo[2,3-d]pyrimidin-2-amine]",pIC50 in the recombinant cellular LRRK2 alphaScreen assay,,≥ 5.0
"CCOc1nc(Nc2cnn([C@H]3CCN(C4COC4)C[C@@H]3F)c2Cl)nc2[nH]ccc12 (single isomer, unassigned) [Example E104]",pIC50 in the recombinant cellular LRRK2 alphaScreen assay,,≥ 5.0
"CCOc1nc(Nc2cnn(C3CCN(C4COC4)CC3(F)F)c2C)nc2[nH]ccc12 (single isomer, unassigned) [Example E131, N-(1-(3,3-difluoro-1-(oxetan-3-yl)piperidin-4-yl)-5-methyl-1H-pyrazol-4-yl)-4-ethoxy-7H-pyrrolo[2,3-d]pyrimidin-2-amine]",pIC50 in the recombinant cellular LRRK2 alphaScreen assay,"text statement, listed as Example E131",≥ 5.0
"CCOc1nc(Nc2cnn([C@H]3C[C@H](F)CN(C4COC4)C3)c2Cl)nc2[nH]ccc12 [Example E150, N-(5-chloro-1-((3S,5S)-5-fluoro-1-(oxetan-3-yl)piperidin-3-yl)-1H-pyrazol-4-yl)-4-ethoxy-7H-pyrrolo[2,3-d]pyrimidin-2-amine]",pIC50 in the recombinant cellular LRRK2 alphaScreen assay,,≥ 5.0
"CCOc1nc(Nc2cnn(C3CCN(C4COC4)CC3)c2C)nc2[nH]ccc12 [Example E53, 4-ethoxy-N-(5-methyl-1-(1-(oxetan-3-yl)-piperidin-4-yl)-1H-pyrazol-4-yl)-7H-pyrrolo-[2,3-d]-pyrimidin-2-amine]",pIC50 in the recombinant cellular LRRK2 alphaScreen assay,,≥ 5.0
"CCOc1nc(Nc2cnn(C3(C)CC(N4CCOCC4)C3)c2C)nc2[nH]ccc12 (stereo not drawn) [Example E137, 4-ethoxy-N-(5-methyl-1-(1-methyl-3-morpholinocyclobutyl)-1H-pyrazol-4-yl)-7H-pyrrolo[2,3-d]pyrimidin-2-amine]",pIC50 in the recombinant cellular LRRK2 alphaScreen assay,,≥ 5.0
"CCOc1nc(Nc2cnn(C3CN(C4COC4)CCC3(F)F)c2C)nc2[nH]ccc12 (single isomer, unassigned) [Example E119, N-(1-(4,4-difluoro-1-(oxetan-3-yl)piperidin-3-yl)-5-methyl-1H-pyrazol-4-yl)-4-ethoxy-7H-pyrrolo[2,3-d]pyrimidin-2-amine]",pIC50 in the recombinant cellular LRRK2 alphaScreen assay,"text statement, listed as Example E119",≥ 5.0
"CCOc1nc(Nc2cnn(CC3COC3)c2Cl)nc2[nH]ccc12 [Example E28, N-(5-chloro-1-(oxetan-3-yl-methyl)-1H-pyrazol-4-yl)-4-ethoxy-7H-pyrrolo-[2,3-d]pyrimidin-2-amine]",pIC50 in the recombinant cellular LRRK2 alphaScreen assay,,≥ 5.0
"CCOc1nc(Nc2cnn(C3CCOCC3C)c2C)nc2[nH]ccc12 (single isomer, unassigned) [Example E114, (cis)-4-ethoxy-N-(5-methyl-1-(3-methyltetrahydro-2H-pyran-4-yl)-1H-pyrazol-4-yl)-7H-pyrrolo[2,3-d]pyrimidin-2-amine]",pIC50 in the recombinant cellular LRRK2 alphaScreen assay,text statement,≥ 7.0
same,pIC50 in the recombinant cellular LRRK2 alphaScreen assay,"text statement, listed as Example E114",≥ 5.0
"trans-2-(5-chloro-4-((4-ethoxy-7H-pyrrolo-[2,3-d]-pyrimidin-2-yl)amino)-1H-pyrazol-1-yl)-cyclopentanol [Example E37]",pIC50 in the recombinant cellular LRRK2 alphaScreen assay,text statement,≥ 7.0
same,pIC50 in the recombinant cellular LRRK2 alphaScreen assay,"text statement, listed as Example E37",≥ 5.0
"CCOc1nc(Nc2cnn(C3COC3)c2Cl)nc2[nH]ccc12 [Example E35, N-(5-chloro-1-(oxetan-3-yl)-1H-pyrazol-4-yl)-4-ethoxy-7H-pyrrolo-[2,3-d]pyrimidin-2-amine]",pIC50 in the recombinant cellular LRRK2 alphaScreen assay,,≥ 5.0
"CCOc1nc(Nc2cnn([C@@H]3CCCN(C4COC4)C3)c2C)nc2[nH]ccc12 [Example E135, (R)-4-ethoxy-N-(5-methyl-1-(1-(oxetan-3-yl)piperidin-3-yl)-1H-pyrazol-4-yl)-7H-pyrrolo [2,3-d]pyrimidin-2-amine]",pIC50 in the recombinant cellular LRRK2 alphaScreen assay,,≥ 5.0
"CCOc1nc(Nc2c(C)nn(C)c2C)nc2[nH]ccc12 [Example E6, 4-ethoxy-N-(1,3,5-trimethyl-1H-pyrazol-4-yl)-7H-pyrrolo-[2,3-d]-pyrimidin-2-amine]",pIC50 in the recombinant cellular LRRK2 alphaScreen assay,text statement,≥ 5.0
"CCOc1nc(Nc2cn(CCF)nc2C)nc2[nH]ccc12 [Example E27, 4-ethoxy-N-(1-(2-fluoroethyl)-3-methyl-1H-pyrazol-4-yl)-7H-pyrrolo-[2,3-d]-pyrimidin-2-amine]",pIC50 in the recombinant cellular LRRK2 alphaScreen assay,,≥ 5.0
"CCOc1nc(Nc2cnn(CCF)c2C)nc2[nH]ccc12 [Example E26, 4-ethoxy-N-(1-(2-fluoroethyl)-5-methyl-1H-pyrazol-4-yl)-7H-pyrrolo-[2,3-d]-pyrimidin-2-amine]",pIC50 in the recombinant cellular LRRK2 alphaScreen assay,,≥ 5.0
"CCOc1nc(Nc2cnn(CCN3CCO[C@H](C(F)F)C3)c2C)nc2[nH]ccc12 [Example E100, (S)—N-(1-(2-(2-(difluoromethyl)morpholino)ethyl)-5-methyl-1H-pyrazol-4-yl)-4-ethoxy-7H-pyrrolo[2,3-d]pyrimidin-2-amine]",pIC50 in the recombinant cellular LRRK2 alphaScreen assay,,≥ 5.0
"CCOc1nc(Nc2cnn(C3CCCOC3)c2C)nc2[nH]ccc12 (single isomer, unassigned) [Example E30, 4-ethoxy-N-(5-methyl-1-(tetrahydro-2H-pyran-3-yl)-1H-pyrazol-4-yl)-7H-pyrrolo-[2,3-d]pyrimidin-2-amine]",pIC50 in the recombinant cellular LRRK2 alphaScreen assay,"text statement, listed as Example E30",≥ 5.0
"CCOc1nc(Nc2cnn([C@@H]3CCN[C@@H](C(F)F)C3)c2C)nc2[nH]ccc12 [Example E94, N-(1-((2R,4R)-2-(difluoromethyl)piperidin-4-yl)-5-methyl-1H-pyrazol-4-yl)-4-ethoxy-7H-pyrrolo[2,3-d]pyrimidin-2-amine]",pIC50 in the recombinant cellular LRRK2 alphaScreen assay,,≥ 5.0
"CCOc1nc(Nc2cnn(C3CCC(N4CCOCC4)C3)c2C)nc2[nH]ccc12 (single isomer, unassigned) [Example E108, (trans)-4-ethoxy-N-(5-methyl-1-(3-morpholinocyclopentyl)-1H-pyrazol-4-yl)-7H-pyrrolo[2,3-d]pyrimidin-2-amine]",pIC50 in the recombinant cellular LRRK2 alphaScreen assay,"text statement, listed as Example E108",≥ 5.0
"CCOc1nc(Nc2cnn([C@@H]3CCN(C4COC4)C[C@H]3F)c2C)nc2[nH]ccc12 [Example E98, 4-ethoxy-N-(1-((3R,4R)-3-fluoro-1-(oxetan-3-yl)piperidin-4-yl)-5-methyl-1H-pyrazol-4-yl)-7H-pyrrolo[2,3-d]pyrimidin-2-amine]",pIC50 in the recombinant cellular LRRK2 alphaScreen assay,,≥ 5.0
"CCOc1nc(Nc2cnn([C@H]3CCN[C@@H](C(F)F)C3)c2C)nc2[nH]ccc12 [Example E95, N-(1-((2R,4S)-2-(difluoromethyl)piperidin-4-yl)-5-methyl-1H-pyrazol-4-yl)-4-ethoxy-7H-pyrrolo[2,3-d]pyrimidin-2-amine]",pIC50 in the recombinant cellular LRRK2 alphaScreen assay,,≥ 5.0
